The results in this text go back to PMC7819943, “Rice protein-binding microarrays: a tool to detect cis-acting elements near promoter regions in rice”.

Chains of the proteins cited; added tags and fusions are not shown.
UniProt Q0JBA9, entry or part of it: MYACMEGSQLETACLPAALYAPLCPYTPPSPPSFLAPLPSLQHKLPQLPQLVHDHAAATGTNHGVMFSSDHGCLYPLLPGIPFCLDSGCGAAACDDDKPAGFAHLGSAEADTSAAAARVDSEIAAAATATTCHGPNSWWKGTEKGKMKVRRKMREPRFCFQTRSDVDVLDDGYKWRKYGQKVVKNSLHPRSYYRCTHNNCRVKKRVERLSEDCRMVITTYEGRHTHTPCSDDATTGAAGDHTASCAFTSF

Some of the results follow.

For this assay, the target named is OsWRKY34 (Oryza sativa, UniProt Q0JBA9 1-250). Description: protein-binding microarray (RPBM); PBS, 2% BSA, 51.3 ng/ul salmon testes DNA, 50 uM zinc acetate, 200 nM TF, 25 C, 1 h; high values mean tight binding. The note with it: protein: recombinant; tags: N-terminal polyhistidine and DsRed monomer fusion (pET32a); label: CyDye5-dUTP incorporated in the synthesized complementary strand; 3' TTTTT single-stranded linker to array surface; dsDNA, one strand shown. The essentials: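 The binding signal for each feature is its fluorescence intensity in arbitrary units. An Axon 4000B scanner was used to read a custom Agilent array that had been made double-stranded with Cy5-dUTP primer extension, blocked with 2% BSA, incubated at 25 °C for 1 h with 200 nM protein in PBS, 2% BSA, salmon testes DNA and 50 µM zinc acetate, and washed. The protein was an N-terminal polyhistidine–DsRed transcription factor fusion from E. coli BL21-CodonPlus, purified on Ni–NTA.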
Regarding “TTTTCAGTCATCAACTACTAGTACTTTTCAATTTTCCTACCGGAGTCACCTAGTGCAG”, the binding signal is 9010 fluorescence intensity (a.u.).

Consider “GCCTTTTATACTCCATATATACTTCTACTCCTACTTCCCTCGGAGTCACCTAGTGCAG”, for which the binding signal is 10400 fluorescence intensity (a.u.).

In the case of “CTTCATTGTTAAGTATACTTTCATGTACACATATAGTTTTCGGAGTCACCTAGTGCAG”, the binding signal is 11100 fluorescence intensity (a.u.). For “CCGCATTTCCTTTCCCGTATCCCGCAGAGCAGAAGCACACCGGAGTCACCTAGTGCAG”, the binding signal is 8120 fluorescence intensity (a.u.).

With “TTTTTCATCTTGTCCGTTCCTCACGTCACCTTGCTGCCCTCGGAGTCACCTAGTGCAG”, the binding signal is 10600 fluorescence intensity (a.u.). For “CCATTTTACTGCTGTTGCATGCACAACTTATATAACAAACCGGAGTCACCTAGTGCAG”, the binding signal is 10100 fluorescence intensity (a.u.).

Turning to “TTCGTTGCTTGCCGCTCTATAAATTTCCAGCTTCCTTTCGCGGAGTCACCTAGTGCAG”, the binding signal was 8170 fluorescence intensity (a.u.).

As to “TCAGTGTCAAACCGCTCCGATAGTGTTATATTTGCCGTGCCGGAGTCACCTAGTGCAG”, the binding signal is 8700 fluorescence intensity (a.u.). With “CTACTAGTAACTTGAAGTCGGGTGGGCTGGTTTCACCATACGGAGTCACCTAGTGCAG” the figure was 10500 fluorescence intensity (a.u.); with “AACCAACTTAACGACCATTGCATGTAGTCATGTTCAGATTCGGAGTCACCTAGTGCAG”, 8070 fluorescence intensity (a.u.).

With “GCTTCGTGTCATCTCGTCTCTGCATGGCAACCGAAAATTTCGGAGTCACCTAGTGCAG”, the binding signal was 12200 fluorescence intensity (a.u.). As to “GCTATAGACGCCCTTTCATTTTTTTTATTTTATTATTTTTCGGAGTCACCTAGTGCAG”, the binding signal is 8320 fluorescence intensity (a.u.). As for “TTTCACTTGCTTGTTTTTCATGTCCACACTTCCCAACTCACGGAGTCACCTAGTGCAG”, the binding signal was 16600 fluorescence intensity (a.u.). As for “GTATGACTCCGACCTGCACACGTACAAATTTGTTTTCAACCGGAGTCACCTAGTGCAG”, the binding signal is 9330 fluorescence intensity (a.u.).

Take “CAACCTCCCGACCCGTTGCTGCCCTCTTCATTCGCTCGCTCGGAGTCACCTAGTGCAG”: the binding signal is 9350 fluorescence intensity (a.u.).

In the case of “GCGATTTCCTTGTGCCACTATCCTGGCTTGATGCGCAGTTCGGAGTCACCTAGTGCAG”, the binding signal was 8110 fluorescence intensity (a.u.). As for “TCATCATGACCATTACGACAATTAGTACCTCAGTTTTTTACGGAGTCACCTAGTGCAG”, the binding signal is 10800 fluorescence intensity (a.u.). Turning to “GTCCTCGTTTTTTTTTTCCTTCTCTTTTTCTTTTCCTTTTCGGAGTCACCTAGTGCAG”, the binding signal was 9450 fluorescence intensity (a.u.). In the case of “AAATACTTTTGTTACTCTAATATGTTTATGTCGCTTCAGACGGAGTCACCTAGTGCAG”, the binding signal was 8560 fluorescence intensity (a.u.). On to “ACCGTCTCATCTTCTTCTTCCTCCTCCTCTGATCTTCTCCCGGAGTCACCTAGTGCAG”, for which the binding signal was 8220 fluorescence intensity (a.u.). For “ATTTCTATTTGGACTCTTCTTTTCTTTTTCTTCGATTAATCGGAGTCACCTAGTGCAG”, the binding signal was 10700 fluorescence intensity (a.u.). With “ATATCCACCTCTCTAGATCTTTCTCGTCGCAAACGCCCTTCGGAGTCACCTAGTGCAG”, the binding signal was 9990 fluorescence intensity (a.u.). As for “GCCACTAAGGAGAACGAGAGAGAAAGAGGGGAGGTGGGGTCGGAGTCACCTAGTGCAG”, the binding signal was 8770 fluorescence intensity (a.u.). As to “CCGCTTCTCCGCCGTCCTTTTGCCAGGGCCACCGACACTACGGAGTCACCTAGTGCAG”, the binding signal was 13100 fluorescence intensity (a.u.).

As to “GCTTGTTGAATTTATGGCTGTACTATTGGTGAATTTATTACGGAGTCACCTAGTGCAG”, the binding signal is 11700 fluorescence intensity (a.u.).

Take “ATATTTCACTCTATTTTTATTGTATGTTGCACACTTTGATCGGAGTCACCTAGTGCAG”: the binding signal is 8890 fluorescence intensity (a.u.). Turning to “TATCTTCTCCGTTTCCAGGCTTCCAGCCCACAACCTGACACGGAGTCACCTAGTGCAG”, the binding signal is 8110 fluorescence intensity (a.u.). As for “TCCTCCTGTACGCTCGATCTCTCTTTTTCTCTCTCGCTATCGGAGTCACCTAGTGCAG”, the binding signal was 13200 fluorescence intensity (a.u.).

Turning to “TCCCCTCACTGACAAGTGGGCCACCAACCTGCATCCTGGCCGGAGTCACCTAGTGCAG”, the binding signal is 8170 fluorescence intensity (a.u.). For the sequence “TTTTTTTTGGTAATGCGTGGTATTTCTTGTTCGTGTAAAACGGAGTCACCTAGTGCAG”, the binding signal was 9780 fluorescence intensity (a.u.). On to “TCACTTTCGGCGGCTACTCCTCTTGAGTCTTGACCGGTTGCGGAGTCACCTAGTGCAG”, for which the binding signal is 8620 fluorescence intensity (a.u.).

Turning to “GCTCCATCTCTCGTCTCGCGCTTCACTCCACATCTGTTTCCGGAGTCACCTAGTGCAG”, the binding signal was 18300 fluorescence intensity (a.u.). “ACACACTATACACTACCCCATCCTACCCTACCCTACACTACGGAGTCACCTAGTGCAG”: the binding signal was 8750 fluorescence intensity (a.u.). Take “TCCGATTTATTTGTCAAAATTGAGCGCTGTTTCGTTAGTTCGGAGTCACCTAGTGCAG”: the binding signal was 9460 fluorescence intensity (a.u.). Turning to “CTTATCATCGACAGTTTCTTCTCGTTTCTGTCTCGTACGTCGGAGTCACCTAGTGCAG”, the binding signal was 11900 fluorescence intensity (a.u.). Regarding “TGTCTTGGTCTTGTGGCGTTTATTGTTGCCGTCTGAGCGACGGAGTCACCTAGTGCAG”, the binding signal was 11000 fluorescence intensity (a.u.). Consider “CGTCTTTTTTCATTTTCCTATTGATCACTGAGGTTTTCGACGGAGTCACCTAGTGCAG”, for which the binding signal is 10200 fluorescence intensity (a.u.). With “AGAGTTCTCACTGTTACCTGTTGGTTATCTTTACATTACCCGGAGTCACCTAGTGCAG”, the binding signal is 9110 fluorescence intensity (a.u.). With “GCACTGGAAATTAATCATCGGCTTGTTCATCTCCACTGATCGGAGTCACCTAGTGCAG”, the binding signal is 8640 fluorescence intensity (a.u.). Regarding “ACCGGATATTATTATTCTGCTAATTTATAGGGTTTTTTCACGGAGTCACCTAGTGCAG”, the binding signal is 8820 fluorescence intensity (a.u.). Regarding “TGCACATAACATTTACCCTTTTTTTTCCCTTATCATATCACGGAGTCACCTAGTGCAG”, the binding signal was 8510 fluorescence intensity (a.u.). Turning to “TTTTGTGTGTTGTTGTTTTTAATGTAAATTATCTTTCATACGGAGTCACCTAGTGCAG”, the binding signal was 12200 fluorescence intensity (a.u.).
